Results published in paper PMC7481187.

By UniProt entry, the sequences of proteins in these tests, tags left out.
UniProt P25490, whole entry: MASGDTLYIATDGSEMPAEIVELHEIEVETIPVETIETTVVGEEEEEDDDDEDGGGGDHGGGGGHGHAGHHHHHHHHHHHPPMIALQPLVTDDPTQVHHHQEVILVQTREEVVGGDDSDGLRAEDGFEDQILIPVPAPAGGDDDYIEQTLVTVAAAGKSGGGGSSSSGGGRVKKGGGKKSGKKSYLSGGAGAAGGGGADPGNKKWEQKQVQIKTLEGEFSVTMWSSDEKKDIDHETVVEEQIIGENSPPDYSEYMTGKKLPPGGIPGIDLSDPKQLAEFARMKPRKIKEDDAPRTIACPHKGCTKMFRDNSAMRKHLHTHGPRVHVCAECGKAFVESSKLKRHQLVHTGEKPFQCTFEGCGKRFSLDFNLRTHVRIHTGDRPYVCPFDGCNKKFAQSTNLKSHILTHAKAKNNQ

Biological target: hsYY1 (Homo sapiens (293T cells)) (UniProt P25490)
Assay: EMSA supershift
Conditions: hsYY1 mAb; EMSA: LightShift kit, 20 uL, 500 ng-5 ug bbYY1 or 2-3 uL nuclear extract, 8% native TBE gel; protein in an extract

Sequence	binding result
ATTGCGCGTCGCGCGAAAATTCAAGATGGCGACCAGACACTGC (double strand) [Oligomer 3]	binds
CAAGATGGCCGCCGACCTTATGCACA (double strand) [Oligomer 1]	binds

Construct, isoform or probe ends are uncertain for at least one entry. Where cells or extracts were used, other partners may take part. At least one verdict was read from the data and is not stated in words by the source.
